PubChem BioAssay AID1224828 – NIAID, 2016

Aim: 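Knock-downs that increase or decrease LPS-induced p65 nuclear translocation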 (primary screen)
System: mouse RAW264.7 G9 macrophage reporter cells (GFP-p65, Tnf promoter-mCherry)
Reagents: siRNA pool against mouse genes, 100 nM
Time to read-out: 2 days siRNA transfection, then 40 min LPS before fixation
Challenge: LPS (Salmonella minnesota R595) at 10 ng/ml
Measurement: 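Microscopy ratio of nuclear to perinuclear-ring GFP-p65 signal, scaled to the plate median; gene score is the average of two replicate robust z-scores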
Scale: p65 translocation robust z-score: higher = more nuclear NF-kappaB p65 after LPS than the plate median; nuclear/cytoplasmic p65 ratio: higher = more nuclear NF-kappaB p65
Call rule: 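Called active when z exceeds 3.3 or falls under -1.56 (median of Tlr4 controls), giving activity score of at least 50; no calls for control wells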
Meaning of the calls: active = hit (p65 shift raised or lowered); inactive = no clear change
Here is a random part of about 17,000 reagents tested. 762 of all reagents (4.5%) were called active. 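Active calls include both raised and lowered p65 entry, mostly lowered; wells with fewer than 50 cells lack a z-score.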 Raw values vary from plate to plate and are shown uncorrected. Unmarked entries are inactive.

| target | p65 translocation robust z-score | nuclear/cytoplasmic p65 ratio, rep 1 | nuclear/cytoplasmic p65 ratio, rep 2 | low cell count flag |
| --- | --- | --- | --- | --- |
| Rbp2 (retinol binding protein 2, cellular) | 0.83 | 1.63 | 1.23 | enough cells to score |
| Cdca7 (cell division cycle associated 7) | 0.78 | 1.71 | 1.91 | enough cells to score |
| Hpdl (4-hydroxyphenylpyruvate dioxygenase-like) | -0.68 | 1.5 | 1.71 | enough cells to score |
| Actl11 (actin-like 11) | – | 1.24 | 1.22 | fewer than 50 cells per well; well left out of scoring |
| Tex46 (testis expressed 46) | – | 1.37 | 1.37 | fewer than 50 cells per well; well left out of scoring |
| Ell3 (elongation factor RNA polymerase II-like 3) | – | 1.21 | 1.19 | fewer than 50 cells per well; well left out of scoring |
| Ccl8 (C-C motif chemokine ligand 8) | -1.06 | 1.37 | 1.24 | enough cells to score |
| Smg9 (SMG9 nonsense mediated mRNA decay factor) | -1.76 (active) | 1.28 | 1.22 | enough cells to score |
| Zfp384 (zinc finger protein 384) | -0.11 | 1.46 | 1.46 | enough cells to score |
| Snrnp27 (small nuclear ribonucleoprotein 27 (U4/U6.U5)) | 0.12 | 1.41 | 1.48 | enough cells to score |
| Slc25a16 | -0.09 | 1.32 | 1.31 | enough cells to score |
| 3300002I08Rik (RIKEN cDNA 3300002I08 gene) | – | 1.23 | 1.29 | fewer than 50 cells per well; well left out of scoring |
| Slc6a13 | 1.96 | 1.66 | 1.28 | enough cells to score |
| Ehd4 (EH-domain containing 4) | 1.73 | 1.89 | 1.41 | enough cells to score |
| Camkv (CaM kinase-like vesicle-associated) | 0.22 | 1.65 | 1.47 | enough cells to score |
| Nat14 (N-acetyltransferase 14) | – | 1.06 | 1.41 | fewer than 50 cells per well; well left out of scoring |
| Mtmr9 (myotubularin related protein 9) | 3.41 (active) | 1.95 | 1.72 | enough cells to score |
| Zfp771 (zinc finger protein 771) | -1.6 (active) | 1.32 | 1.27 | enough cells to score |
| Ubp1 (upstream binding protein 1) | -0.15 | 1.39 | 1.21 | enough cells to score |
| Tpte (transmembrane phosphatase with tensin homology) | 1.79 | 1.79 | 1.67 | enough cells to score |
| BC043934 (cDNA sequence BC043934) | 0.75 | 1.46 | 1.7 | enough cells to score |
| Bmp3 (bone morphogenetic protein 3) | -1.12 | 1.45 | 1.44 | enough cells to score |
| Ndufa8 (NADH:ubiquinone oxidoreductase subunit A8) | 0.13 | 1.84 | 1.58 | enough cells to score |
| Sltm (SAFB-like, transcription modulator) | 0.88 | 1.48 | 1.63 | enough cells to score |
| Apeh (acylpeptide hydrolase) | 1.3 | 1.89 | 1.74 | enough cells to score |
| Ccny (cyclin Y) | 0.49 | 1.65 | 1.73 | enough cells to score |
| Sinhcaf (SIN3-HDAC complex associated factor) | 1.52 | 1.52 | 1.39 | enough cells to score |
| Thumpd1 (THUMP domain containing 1) | 0.03 | 1.35 | 1.21 | enough cells to score |
| Ifrd1 (interferon-related developmental regulator 1) | 0.07 | 1.41 | 1.41 | enough cells to score |
| Ptges3l (prostaglandin E synthase 3 like) | – | 1.68 | 1.44 | fewer than 50 cells per well; well left out of scoring |
| Rap2a (RAS related protein 2a) | 0.23 | 1.61 | 1.68 | enough cells to score |
| Spin1 (spindlin 1) | 1.2 | 1.58 | 1.36 | enough cells to score |
| Mpnd (MPN domain containing) | – | 1.6 | 1.37 | fewer than 50 cells per well; well left out of scoring |
| Tmem186 (transmembrane protein 186) | – | 0.925 | 1.15 | fewer than 50 cells per well; well left out of scoring |
| Runx3 (runt related transcription factor 3) | 1.3 | 1.73 | 1.67 | enough cells to score |
| Mthfd2 | -0.28 | 1.68 | 1.6 | enough cells to score |
| Itgal (integrin alpha L) | 0.71 | 1.59 | 1.45 | enough cells to score |
| Arid3b (AT-rich interaction domain 3B) | -0.3 | 1.61 | 1.54 | enough cells to score |
| Kng2 (kininogen 2) | -0.63 | 1.38 | 1.31 | enough cells to score |
| Ptgdr2 (prostaglandin D2 receptor 2) | 1.36 | 1.61 | 1.87 | enough cells to score |

Reformatted: results already given.
target,p65 translocation robust z-score,"nuclear/cytoplasmic p65 ratio, rep 1","nuclear/cytoplasmic p65 ratio, rep 2",low cell count flag
Cdca7 (cell division cycle associated 7),0.78,1.71,1.91,enough cells to score
Hpdl (4-hydroxyphenylpyruvate dioxygenase-like),-0.68,1.5,1.71,enough cells to score
Actl11 (actin-like 11),,1.24,1.22,fewer than 50 cells per well; well left out of scoring
Tex46 (testis expressed 46),,1.37,1.37,fewer than 50 cells per well; well left out of scoring
Ell3 (elongation factor RNA polymerase II-like 3),,1.21,1.19,fewer than 50 cells per well; well left out of scoring
Ccl8 (C-C motif chemokine ligand 8),-1.06,1.37,1.24,enough cells to score
Smg9 (SMG9 nonsense mediated mRNA decay factor),-1.76 (active),1.28,1.22,enough cells to score
